Experimental data reported in PubChem BioAssay AID529 (NMMLSC, 2006).
Out of some 24,000 compounds screened, about 50 (0.2%) were called active. The inconclusive results got no clear call from the source; some entries with a clear call stand among them for comparison.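 The calls were made as follows: active = inhibition above 50%; inconclusive = compound itself fluorescent, judged against control cell fluorescence; inactive = the rest.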

Amino acid sequences for entries named in this document (tags omitted).
UniProt P13612, whole entry, looked up: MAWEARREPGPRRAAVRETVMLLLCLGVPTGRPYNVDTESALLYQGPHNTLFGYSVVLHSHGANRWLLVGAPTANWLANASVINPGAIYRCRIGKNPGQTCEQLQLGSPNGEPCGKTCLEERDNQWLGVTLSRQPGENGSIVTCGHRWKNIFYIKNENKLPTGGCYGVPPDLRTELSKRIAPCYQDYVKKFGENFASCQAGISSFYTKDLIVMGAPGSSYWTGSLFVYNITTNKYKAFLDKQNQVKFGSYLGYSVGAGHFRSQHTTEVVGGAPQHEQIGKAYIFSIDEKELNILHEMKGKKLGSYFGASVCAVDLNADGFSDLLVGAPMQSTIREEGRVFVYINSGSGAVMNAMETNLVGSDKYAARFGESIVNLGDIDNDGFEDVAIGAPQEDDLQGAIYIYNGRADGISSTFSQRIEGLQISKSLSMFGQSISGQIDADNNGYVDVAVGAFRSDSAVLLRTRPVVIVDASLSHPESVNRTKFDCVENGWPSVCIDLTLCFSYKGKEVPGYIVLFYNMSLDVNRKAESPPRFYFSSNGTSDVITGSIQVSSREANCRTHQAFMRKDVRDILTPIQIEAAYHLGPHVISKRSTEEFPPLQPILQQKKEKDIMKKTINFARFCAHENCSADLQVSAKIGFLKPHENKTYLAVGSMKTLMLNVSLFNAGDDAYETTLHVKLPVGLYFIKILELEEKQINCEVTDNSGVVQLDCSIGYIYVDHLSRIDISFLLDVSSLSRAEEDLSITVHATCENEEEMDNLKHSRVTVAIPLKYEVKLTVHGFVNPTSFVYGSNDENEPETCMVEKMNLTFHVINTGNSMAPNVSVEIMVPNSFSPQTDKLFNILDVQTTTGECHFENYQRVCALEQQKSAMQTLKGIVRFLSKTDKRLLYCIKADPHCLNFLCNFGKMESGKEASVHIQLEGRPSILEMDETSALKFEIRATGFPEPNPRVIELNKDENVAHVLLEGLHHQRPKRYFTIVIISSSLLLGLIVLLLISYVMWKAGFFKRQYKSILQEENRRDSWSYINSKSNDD

Target: Integrin alpha-4 (Homo sapiens) (UniProt P13612)
Assay: blockers of LDV-FITC ligand binding on VLA-4 – Jurkat cells, Mn2+ activated, primary screen (AID 529);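 as to inhibition: 0% = Mn2+ stimulated cells lacking compound and 100% = ligand binding without Mn2+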
Details: LDV-FITC binding with Mn2+, flow cytometry; hits give high values, screened at 10 µM (by protocol), 100% = Mn2+-driven binding gain fully reversed unless noted

SMILES | inhibition
Cc1ccc(-c2nc(CS(=O)(=O)CC(=O)NC3CCCCC3C)c(C)o2)cc1 (stereo not drawn) | inconclusive
O=C(O)c1ccc2c3c(ncnc13)-c1ccccc1C2=O | inactive: 1%
COc1cccc(C2=NOC(C(=O)N3CCN(Cc4ccccc4)CC3)C2)c1OC (stereo not drawn) | inactive: 5%
Cc1ccc2c(c1)NC(=O)C(CC(=O)NCCCN1CCc3ccccc3C1)O2 (stereo not drawn) | inconclusive
CCc1ccccc1NC(=O)CN1C(=O)C2CCCN2c2ncc(Cl)cc21 (stereo not drawn) | inconclusive
CCN(CC)C(=O)CSc1nc2ccccc2c(=O)n1CCC(=O)NCc1ccc(F)cc1 | inconclusive
CCC1=C/C(=C\c2ccc3c(c2)OCO3)C(=O)S1 | inconclusive
O=C(OCc1nc2ccccc2s1)c1ccc(Br)s1 | inconclusive
c1ccc(N2CCN(c3nnc(Cc4cccnc4)c4ccccc34)CC2)nc1 | inactive: 2%
O=C(CSc1ccc2nnc(-c3ccc(F)cc3)n2n1)N1CCCCC1 | inconclusive
Cc1cc(C(=O)N2CCN(Cc3ccc4c(c3)OCO4)CC2)on1 | inconclusive
Cc1ccc(-c2nc3s/c(=C\c4ccco4)c(=O)n3n2)cc1 | inconclusive
C=CCc1c(C)nc2c(C(=O)O)cnn2c1C | inconclusive
C[C@H]1C[C@@H]2[C@H]([C@@H](O)C[C@@]3(C)[C@H]2CC[C@]3(O)C(=O)CO)[C@@]2(C)C=CC(=O)C=C12 | inactive: -19%
O=C(Nc1cccc2c1CCCC2)C1CCCN(S(=O)(=O)c2cccc3nonc23)C1 (stereo not drawn) | inactive: 8%
COc1ccc(C2OC(=O)CC2C(=O)NC(C)C)cc1 (stereo not drawn) | inactive: 6% [hits give high values, 100% = Mn2+-driven binding gain fully reversed, screened at 10 µM (by protocol)]
COc1ccc(C(C)NC(=O)C2C(=O)NC3(C)CC2c2ccccc2O3)cc1 (stereo not drawn) | inactive: 30%
CC(C)C1N=C2c3ccccc3N=C(SCC#N)N2C1=O (stereo not drawn) | inconclusive
Cc1onc(-c2ccccc2Cl)c1C(=O)N(C)C1CCCCC1 | inconclusive
CC(C)(C)C1CCc2c(sc(NC(=O)c3cc(C4CC4)on3)c2C#N)C1 (stereo not drawn) | inconclusive
CC(=O)OC(Cn1ccnc1)c1ccccc1 (stereo not drawn) | inactive: 2%
C=CC(=C)CC(NC)c1ccccc1 (stereo not drawn) | inconclusive
COc1ccc(C2CNC(=O)C2)cc1OC1CCCC1 (stereo not drawn) | inactive: -10%
Cn1c(=O)[nH]c(=O)c2c1nc(CN1CCN(c3cccc(Cl)c3)CC1)n2CCN1CCOCC1 | inconclusive

SMILES | inhibition
COc1cc2[nH]c(=O)n(CCC(=O)NC3CCN(Cc4ccccc4)CC3)c(=O)c2cc1OC | inactive: 11% [hits give high values, 100% = Mn2+-driven binding gain fully reversed, screened at 10 µM (by protocol)]
COc1ccccc1C1c2c(oc3ccc(Cl)cc3c2=O)C(=O)N1c1cc(C)on1 (stereo not drawn) | inactive: 16%
Cc1cccc(-c2nsc(SCC(=O)N3CCCC3)n2)c1 | inactive: 15%
O=C(c1cc2ccccc2o1)N1CCN=C1SCc1cccnc1 | inconclusive
Cn1c(=O)cc(OCCCC(=O)N2CCN(Cc3ccc4c(c3)OCO4)CC2)c2ccccc21 | inactive: 7% [hits give high values, 100% = Mn2+-driven binding gain fully reversed, screened at 10 µM (by protocol)]
COc1ccc(OCC(=O)Nc2cc(-c3nn4c(C)nnc4s3)ccc2C)cc1 | inconclusive
Cc1nc2sc(C(c3ccccc3)N3CC(C)OC(C)C3)c(O)n2n1 (stereo not drawn) | inconclusive
COC(=O)c1cnn(-c2ccc(C)c(C)c2)c1-n1cccc1 | inconclusive
CCCCN(CCCC)S(=O)(=O)c1ccc2oc(C(=O)N3CCOCC3)c(C)c2c1 | inconclusive
COc1ccc(-c2cc(C(F)(F)F)nc(N3CCN(c4ccc(F)cc4)CC3)n2)cc1OC | inconclusive
Cc1cccc(-c2nc(CS(=O)CC(=O)N3CCCCC3)c(C)o2)c1 (stereo not drawn) | inconclusive
N#Cc1ccccc1CSc1nc2ncc(Br)cc2[nH]1 | inconclusive
CC(C)CCNC(=O)NC(=O)CN1C(=O)NC2(CCCCC2)C1=O | inconclusive
Cc1ccccc1NC(=O)CN1C(=O)COc2ccc(Cl)cc21 | inactive: 11%
CC(=O)c1cccc(NC(=O)c2cnn3ccccc23)c1 | inconclusive
CCCNC(=O)CS(=O)Cc1nc(-c2ccc(OC)cc2)oc1C (stereo not drawn) | inconclusive
CCN(CC)CCn1c(=S)[nH]c2cc(Cl)ccc2c1=O | inconclusive
O=C(Cc1ccccc1)Nc1ccc(-c2nnc(-c3ccco3)o2)cc1 | inconclusive
CCCn1cnc2c(c1=O)c1nc3ccccc3nc1n2Cc1ccccc1OC | inconclusive
Fc1ccc2nc(N3CCCCC3)sc2c1 | inconclusive
COc1ccc(N(CC(=O)Nc2cccc(C)c2)S(=O)(=O)c2c(C)n[nH]c2C)cc1 | inactive: 23%
CC(C)CNS(=O)(=O)c1ccccc1C(=O)N1CCCCC1 | inconclusive
CC1(C)CC2CC(C)(CN2S(=O)(=O)c2ccc(N)cc2)C1 (stereo not drawn) | inconclusive
CCCNC(=O)N1CCN(S(=O)(=O)c2ccc(C)c(C)c2)CC1 | inactive: -4.5%

Some of the entries above, reformatted:
SMILES	inhibition
Cc1ccccc1NC(=O)CN1C(=O)COc2ccc(Cl)cc21	inactive: 11%
CC(=O)c1cccc(NC(=O)c2cnn3ccccc23)c1	inconclusive
